This note sets out measurements from PubChem BioAssay AID2685 (National Center for Advancing Translational Sciences (NCATS), 2010).

This is one part of the list. These are further read-outs of the screen, such as a control signal, another cell line or another target. No call is given for them. Most of these compounds were active or inconclusive in the main read-out, so they are no random draw. The note in brackets gives the kind of curve behind each potency; many fits are weak.

This assay can be described thus: qHTS Assay for Lipid Storage Modulators in Drosophila S3 Cells.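 On cell number change: cells counted by Cell Tracker Red CMTPX staining in the red channel.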 The note with it: BODIPY lipid droplet fluorescence, 18-24 h; for cell number change: measured here: cell count max response, cells fed with added oleic acid. The gist of the method: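 Drosophila S3 cells loaded with oleic acid (400 uM, as added) and compounds at several concentrations; lipid droplets imaged by 488-nm laser-scanning cytometry, 500–530 nm intensity and object ratio to cell channel. Percent activity normalized to 20 uM Triacsin C.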
A general note: Quantitative high-throughput screening tests each substance at several concentrations.

Where [1] appears, read: measured here: cell number channel AC50, cells fed with added oleic acid.
[2] abbreviates: measured here: lipid fluorescence (Fed channel) AC50, cells fed with added oleic acid.

As to `O=[N+]([O-])c1ccc(O)c(/C=N/Nc2ccccn2)c1`, the cell number change was -35.9%. Under setting [1], the concentration at half-maximal activity (AC50) – broadly, the concentration giving half of the maximal activity seen – is 11.6 µM [falling, partial curve]. Moreover, the concentration at half-maximal activity (AC50) under setting [2] is 13 µM [falling, partial curve]. As to `O=C(O)c1cc(S(=O)(=O)NC23CC4CC(CC(C4)C2)C3)ccc1Cl`, the cell number change was -28%. Besides, the AC50 under setting [1] is 0.00461 µM [falling, full curve].

In the case of `CCC(C)c1ccc(NC(=O)COc2c(F)c(F)c(C(F)(F)F)c(F)c2F)cc1` (stereo unspecified), the cell number change was -58.2%. Moreover, the AC50 under setting [1] is 13 µM [falling, partial curve]. Also, the AC50 under setting [2] is 14.6 µM [falling, partial curve]. Take `CCOC(=O)c1[nH]c2ccccc2c1N=CN(CC)CC`: the cell number change came out at 4%. Under setting [2], the half-maximal activity concentration (AC50) is 13 µM [falling, partial curve]. As to `CCOC(=O)CCCCC(=O)c1[nH]c(=O)[nH]c1CSCCO`, the cell number change is -15.4%. Further, under setting [2], the half-maximal activity concentration (AC50) was 0.146 µM [falling, full curve, poor fit].

On to `COc1ccc(-c2ccc3c(c2)S(=O)(=O)c2cccc(C(=O)NC4CCCC4)c2C3=O)cc1OC`, for which the cell number change was -32.5%. Further, the concentration at half-maximal activity (AC50) under setting [1] is 29.1 µM [falling, single point]. Also, the half-maximal activity concentration (AC50) under setting [2] is 2.31 µM [rising, partial curve]. As for `C=CCOc1ccccc1CN(C(=O)CCl)c1ccc2c(c1)OCO2`, the concentration at half-maximal activity (AC50) under setting [2] is 8.2 µM [falling, partial curve]. With `CCN1CCN(Cc2ccc(NC(=O)c3cc(NC(=O)c4cc(C)on4)cc(OC)c3)cc2C(F)(F)F)CC1`, the cell number change was 10%. In the case of `COc1ccc(N(CC(=O)Nc2ccc(F)c(Cl)c2)S(=O)(=O)c2c(C)noc2C)cc1`, the cell number change came out at 203%. Moreover, the concentration at half-maximal activity (AC50) under setting [1] is 14.6 µM [rising, partial curve]. Also, under setting [2], the AC50 is 16.4 µM [rising, partial curve]. As to `O=C(O)CN1C(=O)C(=O)N(Cc2ccc(Cl)cc2Cl)C1=O`, the cell number change came out at 25.9%. As to `Cc1ccc(S(=O)(=O)c2nc(-c3ccco3)oc2NCC2CCCO2)cc1` (stereo unspecified), the cell number change is -13.7%. Further, the AC50 under setting [2] is 6.51 µM [rising, single point]. As for `CC(=O)c1ccccc1NS(=O)(=O)c1c(C)nn(-c2ccccc2)c1C`, the half-maximal activity concentration (AC50) under setting [1] is 0.731 µM [rising, partial curve].

In the case of `CN1CCN(c2ccc(NC(=S)NC(=O)c3cccc4ccccc34)cc2)CC1`, the cell number change was 1.19%. The concentration at half-maximal activity (AC50) under setting [1] is 0.0366 µM [falling, full curve, poor fit]. In addition, the AC50 under setting [2] is 2.31 µM [rising, full curve, poor fit]. Consider `O=C(NCCc1ccc2c(c1)OCCO2)c1cc(F)cc(F)c1`, for which the cell number change was -17%. For the same compound, the AC50 under setting [2] was 20.6 µM [falling, partial curve, poor fit]. On to `O=C(Nc1ccccc1)N1CCCN(Cc2c(F)cccc2Cl)CC1`, for which the cell number change is -47.6%. Moreover, the AC50 under setting [1] is 16.4 µM [falling, single point]. Also, the AC50 under setting [2] is 18.4 µM [falling, single point]. Take `CC1CCN(C(C)C(=O)Nc2cc(S(=O)(=O)N3CCCCC3)ccc2Cl)CC1` (stereo unspecified): the cell number change turned out to be 8.33%. For `COc1cc(C(C(=O)NC2CCCC2)N(Cc2ccccc2)C(=O)c2snc(C(N)=O)c2N)ccc1O` (stereo unspecified), the cell number change stood at 24.4%. Also, the concentration at half-maximal activity (AC50) under setting [2] is 0.103 µM [rising, partial curve, poor fit]. As for `Cc1ccc(NC(=O)CN2CCCCCC2)c(Br)c1`, the cell number change is -20.7%.

As for `Cc1cc2c(cc(C(=O)OC(C(=O)NCC3CCCO3)C(C)C)n2C)o1` (stereo unspecified), the cell number change is -31.5%. The AC50 under setting [1] is 29.1 µM [falling, single point]. For the same compound, the AC50 under setting [2] is 8.2 µM [falling, partial curve].

Turning to `O=C(O)CNc1ccccc1C(=O)O`, the cell number change is -6.83%. For the same compound, the half-maximal activity concentration (AC50) under setting [2] was 6.51 µM [falling, single point]. For the compound `CCC(NS(=O)(=O)c1ccc(OC)cc1)C(=O)NCCc1ccccc1` (stereo unspecified), the cell number change was -25.8%. The half-maximal activity concentration (AC50) under setting [2] was 29.1 µM [falling, single point]. With `O=C(Nc1nnc(C2CCCO2)s1)c1ccc(Br)cc1` (stereo unspecified), the cell number change came out at 0.809%. Also, the AC50 under setting [2] is 29.1 µM [falling, single point]. Consider `Cc1cc(NC(=O)CCC(=O)N(Cc2ccco2)C(C(=O)NC2CCCC2)c2ccccc2C)no1` (stereo unspecified), for which the cell number change was -42.7%. Moreover, the half-maximal activity concentration (AC50) under setting [1] was 18.4 µM [falling, partial curve, poor fit]. Also, the AC50 under setting [2] was 18.4 µM [falling, partial curve]. Consider `NS(=O)(=O)c1ccc(CCNC(=O)CSc2nnc3ccccn23)cc1`, for which the cell number change is -6.5%. On to `Cc1cc(C)n2nc(S(=O)(=O)N(C)c3ccccc3)nc2n1`, for which the AC50 under setting [2] was 6.51 µM [rising, single point]. With `COc1ccccc1NS(=O)(=O)c1cccc(NC(=O)C2CC2)c1`, the AC50 under setting [2] is 5.8 µM [rising, partial curve, poor fit]. Take `C#CCOCCOCCOCCNc1nc(N2CCN(C(=O)[C@H]([C@@H](C)O)n3cc(CCCCN)nn3)CC2)nc(N2CCN(C(=O)[C@H](CCCCN)n3cc(CCCC)nn3)CC2)n1`: the cell number change is -16.7%. Further, the AC50 under setting [2] was 3.66 µM [rising, full curve]. As to `CCN1CCCC1CN(Cc1cc2ccc(C)cc2[nH]c1=O)C(=S)Nc1cccc(OC)c1` (stereo unspecified), the cell number change turned out to be 10.6%. Under setting [2], the concentration at half-maximal activity (AC50) is 0.206 µM [rising, partial curve, poor fit]. `CCCCn1nnnc1NCc1ccc(C)cc1`: the cell number change came to 7.72%. Further, the AC50 under setting [2] was 1.16 µM [falling, full curve, poor fit]. For the compound `O=C(Nc1ccc(S(=O)(=O)NC2=NCCCCC2)cc1)c1ccc(C(F)(F)F)cc1`, the cell number change is -13.3%. Regarding `CCOC(=O)CNC(=O)CCNS(=O)(=O)c1ccc2c(c1)c(=O)n(C)c(=O)n2C`, the cell number change came to 17.9%. Under setting [2], the concentration at half-maximal activity (AC50) is 0.731 µM [falling, single point]. As to `CNC(=O)c1c(NC(=O)c2ccco2)sc2c1CCC2`, the cell number change is -14.2%. Also, the AC50 under setting [2] was 6.51 µM [falling, single point]. `O=C(CCSc1nc(-c2ccco2)cc(C(F)(F)F)n1)NCC1CCCO1` (stereo unspecified): the cell number change was -8.38%. Under setting [2], the concentration at half-maximal activity (AC50) was 0.0116 µM [rising, full curve, poor fit]. Take `CC(=O)N(c1c(C)n(C)n(-c2ccccc2)c1=O)C1(C(=O)NC2CCCCC2)CCCCC1`: the cell number change was -4.14%. Moreover, the AC50 under setting [2] was 29.1 µM [falling, single point]. Regarding `CCOC(=O)C1C(=O)NCC1c1ccccc1` (stereo unspecified), the cell number change is -34.8%. The AC50 under setting [1] was 23.1 µM [falling, partial curve, poor fit]. Besides, the AC50 under setting [2] is 25.9 µM [falling, partial curve]. With `CCOC(=O)c1cc(-c2ccccc2)n(CCC(=O)N2CCN(c3ccccn3)CC2)c1C`, the cell number change was -29.4%. The concentration at half-maximal activity (AC50) under setting [2] was 11.6 µM [falling, partial curve].
